In PubChem BioAssay AID2685 (National Center for Advancing Translational Sciences (NCATS), 2010):
This is one part of the list. Further columns of the screen follow, without active or inactive calls. Most of these compounds were active or inconclusive in the main read-out, so they are no random draw. Potencies come from curve fits of mixed quality, noted in brackets.

Assay: qHTS Assay for Lipid Storage Modulators in Drosophila S3 Cells;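 as to cell number change: cells counted by Cell Tracker Red CMTPX staining in the red channel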
Conditions: BODIPY lipid droplet fluorescence, 18-24 h; for cell number change: measured here: cell count max response, cells fed with added oleic acid
Procedure, shortened: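 Laser-scanning cytometry quantifies lipid droplet accumulation (500–530 nm total intensity; droplet/cell object ratio) in oleic acid-fed (400 uM added) Drosophila S3 cells treated with a concentration series. 20 uM Triacsin C defined 100% inhibition.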

[1] = measured here: cell number channel AC50, cells fed with added oleic acid
[2] = measured here: lipid fluorescence (Fed channel) AC50, cells fed with added oleic acid

SMILES | AC50 [1] | cell number change [%] | AC50 [2]
CCn1c(=O)n(CC(=O)Nc2cc(OC)c(OC)c(OC)c2)c(=O)c2ccccc21 | 6.51 µM [rising, single point] | – | –
CC1CCCCN1C(=O)CSc1nnc(CSc2ncccn2)n1C (stereo unspecified) | 2.06 µM [rising, partial curve] | 53 | –
CCc1ccccc1NC(=O)CNC(=O)c1cc(C2CC2)nc2c1cnn2C(C)C | 0.58 µM [rising, partial curve, poor fit] | 12.8 | 0.0259 µM [rising, full curve, poor fit]
COc1ccc(C(=O)Cn2c(=O)c(CCC(=O)O)nn3c4ccccc4nc23)cc1OC | 2.91 µM [falling, single point] | – | 16.4 µM [falling, partial curve]
CC(CC(=O)O)CC(=O)Nc1nncs1 (stereo unspecified) | – | -13.5 | 0.731 µM [falling, full curve, poor fit]
Oc1ccc(-c2nc3ccccn3c2NCc2ccco2)cc1 | 6.51 µM [rising, single point] | 20.1 | –
C/C(=N\NC(=O)c1c(-c2ccccc2Cl)noc1C)c1cccc(NC(=O)C(C)C)c1 | – | – | 2.91 µM [rising, single point]
CCSc1nnc(CCNS(=O)(=O)c2ccc(C(C)=O)cc2)n1C | – | 23.3 | –
CCn1c2ccc(C)cc2c2nnc(NN)nc21 | 7.31 µM [rising, partial curve] | 36.1 | 7.31 µM [rising, partial curve, poor fit]
O=C(NCc1ccco1)c1cc2nc(-c3ccc4c(c3)OCO4)cc(C(F)(F)F)n2n1 | 0.103 µM [rising, full curve] | 70.9 | 0.0411 µM [rising, full curve]
O=C(CNS(=O)(=O)c1ccc(Br)s1)NCC1COc2ccccc2O1 (stereo unspecified) | – | -36.2 | 1.16 µM [rising, full curve, poor fit]
NS(=O)(=O)c1ccc(NC(=S)NC(=O)/C=C/c2cccs2)cc1 | – | 7.57 | 0.651 µM [rising, full curve, poor fit]
Cc1nccn1Cc1cccc2ccccc12 | – | 3.78 | 0.00461 µM [falling, full curve, poor fit]
COc1ccc(CCNC(=O)CCn2c(=O)c3cccn3c3ccc(F)cc32)c(OC)c1OC | 6.51 µM [falling, single point] | -15 | –
COc1ccccc1-c1nnc(SCC(=O)Nc2c(Cl)cccc2Cl)o1 | 0.411 µM [rising, full curve, poor fit] | 31.1 | 0.461 µM [rising, full curve]

Rewritten with tabs: 2 of the compounds above.
SMILES	AC50 [1]	cell number change [%]	AC50 [2]
CCn1c(=O)n(CC(=O)Nc2cc(OC)c(OC)c(OC)c2)c(=O)c2ccccc21	6.51 µM [rising, single point]	–	–
COc1ccc(CCNC(=O)CCn2c(=O)c3cccn3c3ccc(F)cc32)c(OC)c1OC	6.51 µM [falling, single point]	-15	–
